# PubChem BioAssay AID652272 | Drosophila RNAi Screening Center – 2013
# Test: 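Finding fly genes that regulate Hedgehog signal transduction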 (primary screen)
# System: Drosophila clone 8 (Cl8) cells
# Knock-down reagent: long dsRNA against Drosophila genes
# Measurement: 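Firefly light from a Hedgehog-responsive ptc promoter reporter and Renilla reference light, both read on a plate reader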
# Reading the numbers: firefly Hh reporter signal: higher = more ptc reporter light; Renilla reference signal: higher = more Renilla control light
# Rule for the call: 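Hit when the z-score averaged over two replicates is under -2 or over +3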
# Meaning of the calls: active = hit: reporter lowered or raised; inactive = not a hit
# In all, the deposit lists about 21,000 reagents; this is an unselected part of those with a known target gene and a result. Of all reagents, 503 (2.4%) were called active. 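Raw plate light values, not normalised; calls rest on replicate z-scores that were not deposited; hits include reporter decreases as well as increases.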 A plus sign joins genes that one reagent is predicted to hit. The record does not give: the amount of reagent, the time to read-out.
target,amplicon,"firefly Hh reporter signal, replicate 1","firefly Hh reporter signal, replicate 2","firefly Hh reporter signal, replicate 3","Renilla reference signal, replicate 1","Renilla reference signal, replicate 2",Outcome
Acsx4,DRSC14311,5.80e5,72680,,27920,2112,inactive
Polr1F,DRSC02278,42374,29236,,2864,1792,inactive
CG31446,DRSC13111,1137,1.96e5,,242,4664,inactive
CG33771,DRSC11718,5.20e5,99952,,4224,4224,inactive
Eig71Ec,DRSC11150,1.32e5,,,5504,3880,inactive
sktl,DRSC04715,82076,51785,,2981,1994,inactive
CG7694,DRSC16288,6.68e5,86784,,32778,2539,inactive
Klp10A,DRSC19601,1.15e5,52427,,3047,1680,inactive
CG13287,DRSC09961,3.40e5,43725,,2137,2137,inactive
CG1946,DRSC06804,88514,63705,,1784,4256,inactive
l(3)mbt,DRSC16983,86823,70713,,2199,2061,inactive
Cdk1,DRSC03504,77003,39517,,3048,2039,inactive
CG33639,DRSC19966,1.28e5,8.77e5,3.54e5,3529,6250,inactive
Syx16,DRSC20507,65846,85553,,1722,2154,inactive
CG7299,DRSC03043,1.12e5,61344,,1529,4194,inactive
Sec6,DRSC06932,95995,82548,,3590,3025,inactive
Ir25a,DRSC00462,90884,76951,,2715,6066,inactive
IntS6,DRSC18281,82827,92564,,2052,2566,inactive
CG34428,DRSC10119,38085,39234,53833,3881,3440,inactive
CG6592,DRSC10669,43024,40678,,4443,3128,inactive
Naa35,DRSC04447,1.09e5,38849,,4131,1915,inactive
CG14252,DRSC14747,1.04e5,84135,,3716,2077,inactive
ND-15,DRSC00311,1.83e5,96496,,5399,3857,inactive
SmD2,DRSC12536,84941,62347,,4178,3056,inactive
CG33268,DRSC10143,56433,43856,33664,5451,3309,inactive
Polr3D,DRSC10485,66886,37177,,3126,1504,inactive
DIP-gamma,DRSC14873,93251,1.85e5,,1528,4326,inactive
lncRNA:bxd,DRSC13176,1896,2.80e5,,513,6147,inactive
CG8323,DRSC07149,1.15e5,49104,,2900,1693,inactive
CG33191 + Pif1B,DRSC12706,1.48e5,,,3218,,inactive
CG8204,DRSC07106,1.25e5,45188,,3216,2203,inactive
spaw,DRSC06824,74905,56074,,1872,4236,inactive
narya,DRSC19439,1.72e5,1.09e5,,4170,2498,inactive
CG11555,DRSC00315,1.32e5,84480,,3463,2256,inactive
Doc1,DRSC11146,45767,95556,,3584,6828,inactive
CG3568,DRSC18312,80951,2.25e5,,3320,7873,inactive
CG34135 + CG11768,DRSC12702,1.85e5,,,3796,,inactive
CG7458,DRSC11829,1.37e5,5.78e5,1.81e5,4521,3533,inactive
sqd,DRSC15160,1.24e5,1.41e5,,2626,3399,inactive
sqd,DRSC17066,4.50e5,58438,,5097,5097,active
Trm1,DRSC02951,89319,55655,,4848,2400,inactive
Upf1,DRSC19667,1.27e5,1.52e5,,1376,1656,active
CG7720,DRSC16306,1.23e5,97526,,3948,3546,inactive
CG7720,DRSC16307,5.10e5,71269,,3116,3116,inactive
Cyp4g15,DRSC20240,92336,1.90e5,,3670,7960,inactive
CG15725,DRSC19691,84805,2.72e5,,3153,10605,inactive
CG32407,DRSC09789,55264,43750,,6436,3072,inactive
RfC3,DRSC03411,1.02e5,48108,,2797,4481,inactive
CG14864,DRSC14987,68288,93698,,2224,2432,inactive
EDTP,DRSC07409,72233,40487,,1973,2925,inactive
NtR,DRSC04628,1.13e5,60529,,2674,5398,inactive
Ance,DRSC01865,77456,31057,,3169,1472,inactive
Wdr92,DRSC10187,1.32e5,,,2237,7041,inactive
ocn,DRSC17020,1.04e5,1.26e5,,4123,4233,inactive
eIF3d2,DRSC15651,1.66e5,92448,,7117,3665,inactive
Atet,DRSC00263,65866,55351,,1104,5277,inactive
Rh4,DRSC11268,2.07e5,,,9601,5256,inactive

An excerpt taken from the entries so far, for reference:
target,amplicon,"firefly Hh reporter signal, replicate 1","firefly Hh reporter signal, replicate 2","firefly Hh reporter signal, replicate 3","Renilla reference signal, replicate 1","Renilla reference signal, replicate 2",Outcome
CG3568,DRSC18312,80951,2.25e5,,3320,7873,inactive
CG34135 + CG11768,DRSC12702,1.85e5,,,3796,,inactive
CG7458,DRSC11829,1.37e5,5.78e5,1.81e5,4521,3533,inactive
sqd,DRSC15160,1.24e5,1.41e5,,2626,3399,inactive
sqd,DRSC17066,4.50e5,58438,,5097,5097,active
Trm1,DRSC02951,89319,55655,,4848,2400,inactive
Upf1,DRSC19667,1.27e5,1.52e5,,1376,1656,active
CG7720,DRSC16306,1.23e5,97526,,3948,3546,inactive
CG7720,DRSC16307,5.10e5,71269,,3116,3116,inactive
